In the supplement of paper PMC7238544:
Structures can show the parent of a compound that is named as a salt. ± gives the standard deviation of the averaged measurements. The list shows a part of the results. The data scatter; read single values as rough.

Experiments:
hAMSC donor 1 [1] = assay: Hoechst total cell count ratio vs vehicle control; higher = more cells (less toxicity)
hAMSC donor 2 [2] = assay: as above
hAMSC donor 1 [3] = assay: transgenic luciferase activity (RLU/mg protein) fold change vs vehicle control (ratio); higher = more transgene expression
hAMSC donor 2 [4] = assay: as above
hAMSC donor 1 [5] = assay: transfection efficiency (EGFP+ cells / Hoechst count) fold change vs vehicle control (ratio); hAMSC are human adipose-derived mesenchymal stem cells given an EGFP-luciferase plasmid by lipofection; higher = enhanced transfection
hAMSC donor 2 [6] = assay: as above
[7] = priming compound concentration 0.2 µM
[8] = priming compound concentration 1.7 µM
[9] = priming compound concentration 13 µM

Compound	Hoechst total cell count ratio (hAMSC donor 1 [1]; [7])	Hoechst total cell count ratio (hAMSC donor 1 [1]; [8])	Hoechst total cell count ratio (hAMSC donor 1 [1]; [9])	Hoechst total cell count ratio (hAMSC donor 2 [2]; [7])	Hoechst total cell count ratio (hAMSC donor 2 [2]; [8])	Hoechst total cell count ratio (hAMSC donor 2 [2]; [9])	transgenic luciferase activity (hAMSC donor 1 [3]; [7])	transgenic luciferase activity (hAMSC donor 1 [3]; [8])	transgenic luciferase activity (hAMSC donor 2 [4]; [8])	transgenic luciferase activity (hAMSC donor 2 [4]; [9])	transfection efficiency (hAMSC donor 1 [5]; [7])	transfection efficiency (hAMSC donor 1 [5]; [8])	transfection efficiency (hAMSC donor 1 [5]; [9])	transfection efficiency (hAMSC donor 2 [6]; [7])	transfection efficiency (hAMSC donor 2 [6]; [8])	transfection efficiency (hAMSC donor 2 [6]; [9])	transgenic luciferase activity (hAMSC donor 2 [4]; [7])	transgenic luciferase activity (hAMSC donor 1 [3]; [9])
CCCCC(=O)O[C@H]1CC[C@H]2[C@@H]3CCc4cc(O)ccc4[C@H]3CC[C@]12C [Estradiol valerate]	1.2 ± 0.15	1.27 ± 0.23	1.13 ± 0.31	1.23 ± 0.035	0.808 ± 0.16	0.751 ± 0.058	0.885 ± 0.51	0.565 ± 0.19	0.799 ± 0.081	0.615 ± 0.092	1.32 ± 0.48	1.22 ± 0.3	0.938 ± 0.082	0.899 ± 0.063	1.27 ± 0.038	1.48 ± 0.34		
CCOC(=O)C1=C(C)NC(C)=C(C(=O)OC)C1c1cccc([N+](=O)[O-])c1 (centres undefined) [Nitrendipine]	1.36 ± 0.16	1.11 ± 0.13	0.701 ± 0.078	1.29 ± 0.58	0.939 ± 0.15	1.49 ± 0.43		1.64 ± 1.3	0.335 ± 0.025	0.0889 ± 0.038	1.47 ± 0.4	1.26 ± 0.28	1.33 ± 0.21	1.3 ± 0.43	1.01 ± 0.056	1.09 ± 0.067	0.485 ± 0.049	
CNC(=C[N+](=O)[O-])NCCSCc1ccc(CN(C)C)o1 [Ranitidine hydrochloride]	1.14 ± 0.07	1.39 ± 0.24	1.3 ± 0.028	1.16 ± 0.1	0.802 ± 0.2	1.2 ± 0.21	0.462 ± 0.23		0.522 ± 0.058		1.38 ± 0.24	1.08 ± 0.14	1.63 ± 0.3	0.734 ± 0.024	1.48 ± 0.12	1.1 ± 0.17	0.718 ± 0.29	6.23 ± 1.7
Cc1ccccc1C(OCCN(C)C)c1ccccc1 (centres undefined) [Orphenadrine hydrochloride]	1.29 ± 0.056	1.45 ± 0.11	1.32 ± 0.15	1.12 ± 0.13	1.08 ± 0.041	1.05 ± 0.19			1.13 ± 0.33	0.847 ± 0.073	0.685 ± 0.058	1.41 ± 0.8	0.979 ± 0.11	1.1 ± 0.17	1.19 ± 0.092	0.928 ± 0.14	0.739 ± 0.27	0.358 ± 0.11
C[C@@](Cc1ccc(O)c(O)c1)(NN)C(=O)O [Carbidopa]	1.06 ± 0.11	1.19 ± 0.024	0.901 ± 0.2	0.773 ± 0.26	1.37 ± 0.065	1.31 ± 0.23		0.858 ± 0.48	0.534 ± 0.039	0.331 ± 0.007	1.15 ± 0.058	1.24 ± 0.35	1.88 ± 0.6	1.31 ± 0.17	1.03 ± 0.25	0.953 ± 0.088		1.02 ± 0.39
C#C[C@]1(O)CC[C@H]2[C@@H]3CCC4=Cc5oncc5C[C@]4(C)[C@H]3CC[C@@]21C [Danazol]	0.984 ± 0.14	0.949 ± 0.16	1.16 ± 0.092	1.11 ± 0.049	0.969 ± 0.018	0.978 ± 0.39	0.828 ± 0.42	0.474 ± 0.32	0.692 ± 0.081	0.374 ± 0.075	0.95 ± 0.087	1.06 ± 0.33	0.91 ± 0.14	1.11 ± 0.11	1.63 ± 0.079	1.37 ± 0.33		
CC(=O)CC(c1ccccc1)c1c(O)c2ccccc2oc1=O (centres undefined) [Warfarin sodium]	1.26 ± 0.12	1.27 ± 0.085	1.43 ± 0.25	1.12 ± 0.12	0.706 ± 0.038	1.37 ± 0.15	0.76 ± 0.059		0.465 ± 0.051		1.38 ± 0.21	1.12 ± 0.028	1.26 ± 0.31	0.866 ± 0.072	1.58 ± 0.15	0.965 ± 0.063	0.742 ± 0.055	9.67 ± 0.6
CC(=O)O[C@@]12CO[C@@H]1C[C@H](O)[C@@]1(C)C(=O)[C@H](O)C3=C(C)[C@@H](OC(=O)[C@H](O)[C@@H](NC(=O)OC(C)(C)C)c4ccccc4)C[C@@](O)([C@@H](OC(=O)c4ccccc4)[C@H]21)C3(C)C [Docetaxel]	0.48 ± 0.096	0.497 ± 0.079	0.508 ± 0.054	0.52 ± 0.26	0.607 ± 0.21	0.627 ± 0.18		3.46 ± 1.7	0.394 ± 0.01	0.109 ± 0.033	3.2 ± 0.69	4 ± 0.22	2.88 ± 0.82	0.639 ± 0.15	0.866 ± 0.35	0.52 ± 0.36	0.256 ± 0.042	
COc1c2occc2cc2ccc(=O)oc12 [Methoxsalen]	1.22 ± 0.25	1.44 ± 0.043	1.5 ± 0.21	1.15 ± 0.033	0.919 ± 0.24	1.06 ± 0.059	0.591 ± 0.32		1.05 ± 0.36		1.07 ± 0.41	1.07 ± 0.092	0.897 ± 0.071	0.996 ± 0.07	1.26 ± 0.21	0.888 ± 0.14	0.783 ± 0.35	0.868 ± 0.34
CCn1cc(C(=O)O)c(=O)c2ccc(C)nc21 [Nalidixic acid]	0.97 ± 0.17	0.948 ± 0.14	1.09 ± 0.27	1.06 ± 0.057	1.06 ± 0.2	1.29 ± 0.16	0.769 ± 0.59	1.24 ± 0.24	1.05 ± 0.085	0.571 ± 0.12	0.935 ± 0.12	1.49 ± 0.53	0.914 ± 0.11	1.15 ± 0.41	1.23 ± 0.061	0.924 ± 0.034		
CC1COc2c(N3CCN(C)CC3)c(F)cc3c(=O)c(C(=O)O)cn1c23 (centres undefined) [Ofloxacin]	1.34 ± 0.077	1.79 ± 0.28	1.16 ± 0.1	1.13 ± 0.0089	1.14 ± 0.065	1.32 ± 0.19			0.598 ± 0.066	0.755 ± 0.025	1.02 ± 0.2	0.871 ± 0.48	1.12 ± 0.38	0.961 ± 0.2	0.979 ± 0.1	0.872 ± 0.19	0.768 ± 0.16	1.1 ± 0.24
COC1=C(OC)C(=O)C(CCCCCCCCCCO)=C(C)C1=O [Idebenone]	1.08 ± 0.14	0.779 ± 0.11	0.988 ± 0.2	0.875 ± 0.31	0.676 ± 0.038	1.42 ± 0.1		0.163 ± 0.065	0.627 ± 0.024	0.552 ± 0.21	1.46 ± 0.61	1.36 ± 0.39	1.22 ± 0.2	1.25 ± 0.039	0.933 ± 0.16	1.17 ± 0.28		0.788 ± 0.2
CC[C@H]1OC(=O)[C@H](C)[C@@H](O[C@H]2C[C@@](C)(OC)[C@@H](O)[C@H](C)O2)[C@H](C)[C@@H](O[C@@H]2O[C@H](C)C[C@H](N(C)C)[C@H]2O)[C@](C)(O)C[C@@H](C)CN(C)[C@H](C)[C@@H](O)[C@]1(C)O [Azithromycin]	1.14 ± 0.044	1.12 ± 0.18	1.07 ± 0.12	0.861 ± 0.24	0.926 ± 0.47	2.18 ± 0.29		2.85 ± 1.1	3.3 ± 2	0.238 ± 0.28	1.21 ± 0.11	1.47 ± 0.29	1 ± 0.083	1.35 ± 0.13	1.01 ± 0.074	1.07 ± 0.1	0.77 ± 0.14	
CN(C)CCOC(C)(c1ccccc1)c1ccccn1 (centres undefined) [Doxylamine succinate]	1.24 ± 0.13	1.1 ± 0.19	0.976 ± 0.076	0.875 ± 0.28	0.844 ± 0.14	1.53 ± 0.34		1.8 ± 0.56	1.47 ± 0.43	0.233 ± 0.19	0.967 ± 0.16	1.61 ± 0.12	1.01 ± 0.29	1.55 ± 0.1	1.26 ± 0.18	1.2 ± 0.66	0.619 ± 0.3	

Two successive compounds from above:
Compound	Hoechst total cell count ratio (hAMSC donor 1 [1]; [7])	Hoechst total cell count ratio (hAMSC donor 1 [1]; [8])	Hoechst total cell count ratio (hAMSC donor 1 [1]; [9])	Hoechst total cell count ratio (hAMSC donor 2 [2]; [7])	Hoechst total cell count ratio (hAMSC donor 2 [2]; [8])	Hoechst total cell count ratio (hAMSC donor 2 [2]; [9])	transgenic luciferase activity (hAMSC donor 1 [3]; [7])	transgenic luciferase activity (hAMSC donor 1 [3]; [8])	transgenic luciferase activity (hAMSC donor 2 [4]; [8])	transgenic luciferase activity (hAMSC donor 2 [4]; [9])	transfection efficiency (hAMSC donor 1 [5]; [7])	transfection efficiency (hAMSC donor 1 [5]; [8])	transfection efficiency (hAMSC donor 1 [5]; [9])	transfection efficiency (hAMSC donor 2 [6]; [7])	transfection efficiency (hAMSC donor 2 [6]; [8])	transfection efficiency (hAMSC donor 2 [6]; [9])	transgenic luciferase activity (hAMSC donor 2 [4]; [7])	transgenic luciferase activity (hAMSC donor 1 [3]; [9])
CC(=O)O[C@@]12CO[C@@H]1C[C@H](O)[C@@]1(C)C(=O)[C@H](O)C3=C(C)[C@@H](OC(=O)[C@H](O)[C@@H](NC(=O)OC(C)(C)C)c4ccccc4)C[C@@](O)([C@@H](OC(=O)c4ccccc4)[C@H]21)C3(C)C [Docetaxel]	0.48 ± 0.096	0.497 ± 0.079	0.508 ± 0.054	0.52 ± 0.26	0.607 ± 0.21	0.627 ± 0.18		3.46 ± 1.7	0.394 ± 0.01	0.109 ± 0.033	3.2 ± 0.69	4 ± 0.22	2.88 ± 0.82	0.639 ± 0.15	0.866 ± 0.35	0.52 ± 0.36	0.256 ± 0.042	
COc1c2occc2cc2ccc(=O)oc12 [Methoxsalen]	1.22 ± 0.25	1.44 ± 0.043	1.5 ± 0.21	1.15 ± 0.033	0.919 ± 0.24	1.06 ± 0.059	0.591 ± 0.32		1.05 ± 0.36		1.07 ± 0.41	1.07 ± 0.092	0.897 ± 0.071	0.996 ± 0.07	1.26 ± 0.21	0.888 ± 0.14	0.783 ± 0.35	0.868 ± 0.34
